Patent US11576987B2, “Compositions and methods of treating melanoma” (UNIVERSITY OF IOWA RESEARCH FOUNDATION, priority 2016, dated 2023)
At least one structure is not confirmed: it was looked up by name or label, or the drawing left a doubt.

Tests used:
MCR1 expression = assay: Pharmacological enhancement of MCR1 expression in human melanoma cells by drug incubation; assay type: cell-based; conditions: metastatic melanoma cells
From the text: Melanoma if detected early can be cured by surgery, but metastatic melanoma is lethal. New therapies (e.g., immunotherapy; BRAF inhibition, BRAFi) and combinations extend life, but low response rates, acquired drug resistance, and serious side effects are major challenges to improving outcomes for disseminated disease (5 y survival 17%). Peptide-based radionuclide therapy targeted to the melanocortin-receptor type 1 (MCR1-RT) has long been considered a promising alternative; and MCR1-RT has achieved complete responses in mouse models (B16). However, MCR1 expression is heterogeneous/low in human melanoma, and as a result, no previous MCR1-RT study has employed successfully human melanoma cell xenografts. […] This introduces innovative Pb-specific chelator combined with a “click-cyclized” peptide (PSC-C-MCR1) to improve tumor:kidney ratio of radionuclide uptake 7-fold. An effective therapy for metastatic melanoma is developed that combines MCR1-RT with pharmacological agents (PBA; BRAFi/MEKi; HDACi) that enhance MCR1 expression.
Melanoma is the fastest growing cancer incidence in the United States. Surgery combined with radiation can be curative at early stages. However, metastatic melanoma is almost uniformly fatal (5-yr survival 17%). […]

metastatic melanoma = conditions: patients, approval trial; cited from earlier work

| Structure (SMILES) | MCR1 expression (MCR1 expression) | overall survival at 6 months (metastatic melanoma) |
| --- | --- | --- |
| CC(=O)Nc1cccc(-n2c(=O)n(C3CC3)c(=O)c3c(Nc4ccc(I)cc4F)n(C)c(=O)c(C)c32)c1 [trametinib] | upregulate MCR1 expression |  |
| CN(C)/N=N/c1[nH]cnc1C(N)=O [dacarbazine] |  | 64% |
